Data published in the supplement of paper PMC6078165.
Values are relative to the signal before dosing, not to a vehicle control; the signal also falls without drug.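 Fibroblast labels denote human fibroblasts, mainly primary ones from uterus (C12385, HUF), lung (H6013), bone (Hs27A), adrenal (HADF) and skin (WS1), plus mammary HMF and breast cancer-associated Hs343T. Cancer cells are basal-like or mesenchymal-like triple-negative breast cancer lines. A hit is a response shift exceeding 3x replicate standard deviation. The tissue of the other fibroblasts is not given here.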

System: MDAMB231
Assay: relative JC-1 red fluorescence (viability) vs pre-drug, coculture with fibroblast (fraction); higher = more viable cancer cells
Method: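 JC-1 labelled TNBC cells cocultured 1:1 (1,500 cells each) with CellTrace Violet stained primary or stromal fibroblasts in 384-well plates in FluoroBrite medium, treated with one of 42 anticancer drugs at 0.1, 1, 10 or 100 uM. JC-1 red fluorescence (mitochondrial integrity in cancer cells only) was read by plate reader every 8 h for 72 h. Values are normalised to each well's pre-drug value. The stock of one drug was tenfold lower, so its dose labels may be too high.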

Nc1ncn([C@@H]2O[C@H](CO)[C@@H](O)[C@H]2O)c(=O)n1 [Azacitidine]
relative JC-1 red fluorescence
Settings	8 h	16 h	24 h	32 h	40 h	48 h	56 h	64 h	72 h
0.1 µM, coculture fibroblast: C12385	0.78	0.707	0.782	0.668	0.628	0.625	0.6	0.634	0.627
0.1 µM, coculture fibroblast: H6013	0.864	0.8465	0.81	0.799	0.792	0.795	0.787	0.773	0.734
0.1 µM, coculture fibroblast: H6019	0.785	0.702	0.725	0.646	0.619	0.607	0.58	0.577	0.553
0.1 µM, coculture fibroblast: H6076	0.811	0.749	0.737	0.728	0.7193	0.703	0.7032	0.7033	0.717
0.1 µM, coculture fibroblast: H6231	0.867	0.797	0.753	0.713	0.685	0.66	0.623	0.615	0.604
0.1 µM, coculture fibroblast: HADF	0.838	0.809	0.7841	0.7614	0.757	0.753	0.731	0.743	0.708
0.1 µM, coculture fibroblast: HCFa	0.8774	0.845	0.8282	0.7842	0.7679	0.735	0.7098	0.678	0.6377
0.1 µM, coculture fibroblast: HCPF	0.904	0.824	0.763	0.73	0.6787	0.647	0.612	0.583	0.56329
0.1 µM, coculture fibroblast: HHSteC	0.907	0.885	0.864	0.816	0.806	0.7854	0.743	0.73	0.707
0.1 µM, coculture fibroblast: HMF	0.842	0.769	0.7401	0.701	0.666	0.6393	0.614	0.599	0.597
0.1 µM, coculture fibroblast: HPFa	0.9104	0.884	0.835	0.7878	0.7782	0.7453	0.6938	0.66342	0.61476
0.1 µM, coculture fibroblast: HUF	0.8068	0.717	0.759	0.629	0.576	0.57	0.545	0.559	0.558
0.1 µM, coculture fibroblast: Hs5	0.904	0.865	0.834	0.794	0.763	0.722	0.696	0.674	0.654
0.1 µM, coculture fibroblast: Hs27A	0.858	0.8325	0.8016	0.7849	0.7496	0.7273	0.7116	0.7013	0.6686
0.1 µM, coculture fibroblast: Hs343T	0.791	0.719	0.677	0.658	0.633	0.602	0.559	0.544	0.536
0.1 µM, coculture fibroblast: WS1	0.745	0.672	0.731	0.636	0.603	0.597	0.572	0.582	0.576
1 µM, coculture fibroblast: C12385	0.75	0.722	0.615	0.6178	0.549	0.514	0.475	0.4666	0.4452
1 µM, coculture fibroblast: H6013	0.885	0.837	0.83	0.815	0.78	0.752	0.7465	0.7214	0.68165
1 µM, coculture fibroblast: H6019	0.75677	0.705	0.651	0.6086	0.5473	0.516	0.475	0.451	0.413
1 µM, coculture fibroblast: H6076	0.842	0.7665	0.7497	0.722	0.6692	0.6335	0.609	0.594	0.584
1 µM, coculture fibroblast: H6231	0.897	0.813	0.761	0.73	0.671	0.631	0.601	0.581	0.551
1 µM, coculture fibroblast: HADF	0.857	0.789	0.756	0.721	0.683	0.639	0.628	0.616	0.573
1 µM, coculture fibroblast: HCFa	0.8657	0.7998	0.7673	0.729	0.679	0.623	0.609	0.58	0.532
1 µM, coculture fibroblast: HCPF	0.891	0.782	0.719	0.694	0.631	0.594	0.553	0.526	0.502
1 µM, coculture fibroblast: HHSteC	0.82	0.889	0.854	0.823	0.814	0.738	0.786	0.771	0.747
1 µM, coculture fibroblast: HMF	0.903	0.811	0.73	0.691	0.633	0.596	0.549	0.528	0.509
1 µM, coculture fibroblast: HPFa	0.9338	0.8782	0.8174	0.7708	0.7283	0.681	0.625	0.596	0.553
1 µM, coculture fibroblast: HUF	0.8176	0.715	0.669	0.5679	0.4949	0.4697	0.4173	0.39248	0.372
1 µM, coculture fibroblast: Hs5	0.839	0.753	0.723	0.692	0.655	0.616	0.58598	0.5636	0.547
1 µM, coculture fibroblast: Hs27A	0.8717	0.83	0.781	0.742	0.6886	0.625	0.63	0.615	0.564
1 µM, coculture fibroblast: Hs343T	0.867	0.739	0.669	0.625	0.567	0.513	0.46	0.4348	0.4017
1 µM, coculture fibroblast: WS1	0.729	0.658	0.5737	0.534	0.487	0.462	0.418	0.398	0.367
10 µM, coculture fibroblast: C12385	0.736	0.748	0.645	0.672	0.624	0.59	0.548	0.538	0.516
10 µM, coculture fibroblast: H6013	0.9156	0.845	0.7965	0.7589	0.727	0.697	0.7028	0.6786	0.6445
10 µM, coculture fibroblast: H6019	0.799	0.771	0.735	0.732	0.708	0.678	0.649	0.631	0.6
10 µM, coculture fibroblast: H6076	0.848	0.773	0.752	0.742	0.726	0.703	0.69004	0.681	0.6922
10 µM, coculture fibroblast: H6231	0.907	0.83	0.803	0.755	0.718	0.68	0.634	0.602	0.579
10 µM, coculture fibroblast: HADF	0.875	0.8514	0.827	0.811	0.773	0.718	0.708	0.692	0.652
10 µM, coculture fibroblast: HCFa	0.876	0.836	0.821	0.806	0.7734	0.719	0.718	0.685	0.644
10 µM, coculture fibroblast: HCPF	0.889	0.826	0.786	0.767	0.732	0.699	0.668	0.6309	0.604
10 µM, coculture fibroblast: HHSteC	0.907	0.883	0.839	0.803	0.775	0.749	0.732	0.7009	0.6711
10 µM, coculture fibroblast: HMF	0.87	0.84	0.833	0.821	0.8	0.768	0.737	0.727	0.7118
10 µM, coculture fibroblast: HPFa	0.921	0.914	0.8744	0.8398	0.8412	0.811	0.77	0.747	0.716
10 µM, coculture fibroblast: HUF	0.83	0.755	0.754	0.677	0.622	0.596	0.545	0.542	0.519
10 µM, coculture fibroblast: Hs5	0.9148	0.8625	0.841	0.803	0.769	0.729	0.697	0.662	0.645
10 µM, coculture fibroblast: Hs27A	0.8862	0.8469	0.8321	0.8219	0.7714	0.705	0.721	0.697	0.662
10 µM, coculture fibroblast: Hs343T	0.833	0.737	0.7017	0.6775	0.6415	0.6085	0.577	0.567	0.539
10 µM, coculture fibroblast: WS1	0.733	0.7158	0.615	0.636	0.619	0.596	0.554	0.535	0.501
100 µM, coculture fibroblast: C12385	0.7737	0.734	0.666	0.6682	0.624	0.59	0.559	0.558	0.53
100 µM, coculture fibroblast: H6013	0.915	0.785	0.701	0.635	0.589	0.5932	0.5672	0.556	0.527
100 µM, coculture fibroblast: H6019	0.767	0.637	0.621	0.584	0.577	0.596	0.601	0.648	0.66
100 µM, coculture fibroblast: H6076	0.872	0.788	0.715	0.69	0.6532	0.634	0.6228	0.6256	0.631
100 µM, coculture fibroblast: H6231	0.934	0.87	0.827	0.802	0.766	0.738	0.681	0.657	0.635
100 µM, coculture fibroblast: HADF	0.89239	0.8468	0.8259	0.8141	0.79029	0.736	0.7211	0.7061	0.6622
100 µM, coculture fibroblast: HCFa	0.894	0.825	0.791	0.781	0.753	0.712	0.694	0.668	0.617
100 µM, coculture fibroblast: HCPF	0.8646	0.795	0.75	0.755	0.7149	0.6864	0.651	0.625	0.602
100 µM, coculture fibroblast: HHSteC	0.9029	0.8835	0.8443	0.82	0.792	0.761	0.7197	0.7	0.6549
100 µM, coculture fibroblast: HMF	0.888	0.824	0.79206	0.777	0.748	0.719	0.669	0.647	0.621
100 µM, coculture fibroblast: HPFa	0.9395	0.893	0.841	0.802	0.782	0.749	0.7	0.678	0.6358
100 µM, coculture fibroblast: HUF	0.8377	0.7802	0.798	0.741	0.696	0.683	0.636	0.627	0.609
100 µM, coculture fibroblast: Hs5	0.891	0.844	0.832	0.82	0.795	0.763	0.742	0.723	0.701
100 µM, coculture fibroblast: Hs27A	0.9069	0.86	0.817	0.8015	0.783	0.7276	0.75	0.737	0.692
100 µM, coculture fibroblast: Hs343T	0.902	0.851	0.84	0.8448	0.826	0.798	0.764	0.728	0.695
100 µM, coculture fibroblast: WS1	0.7609	0.7381	0.65	0.6765	0.642	0.614	0.574	0.551	0.521
